{"source": "patent US11135228B2", "about": "“Cysteinyl-proresolving mediators that promote resolution of infection and organ protection” (THE BRIGHAM AND WOMEN'S HOSPITAL, priority 2014, dated 2021)", "data": [{"assay": "LC-MS-MS MRM quantification of sulfido-conjugate levels in mouse tissues", "conditions": "endogenous level", "values": [{"molecule": "CCCCC/C=C\\C\\C=C/C=C/C=C/[C@@H](SC[C@H](N)C(=O)NCC(=O)O)[C@@H](O)CCCC(=O)O", "note": "[LTD4]", "24 h Mouse infected spleens": "^a (Below limits, ~1 pg)"}, {"molecule": "CCCCC/C=C\\C\\C=C/C=C/C=C/[C@@H](SC[C@H](N)C(=O)O)[C@@H](O)CCCC(=O)O", "note": "[LTE4]", "24 h Mouse infected spleens": "^a (Below limits, ~1 pg)"}, {"molecule": "CC/C=C\\C[C@H](O)[C@@H](/C=C/C=C/C=C\\C/C=C\\C/C=C\\CCC(=O)O)SC[C@H](N)C(=O)NCC(=O)O", "note": "[PCTR2, 16-cysteinylglycinyl, 17-hydroxy-4Z,7Z,10,12,14,19Z-docosahexaenoic acid]", "24 h Mouse infected spleens": "^a (Below limits, ~1 pg)"}, {"molecule": "CC/C=C\\C[C@H](O)/C=C/C=C\\C=C\\C=C\\[C@@H](SC[C@H](NC(=O)CC[C@H](N)C(=O)O)C(=O)NCC(=O)O)[C@@H](O)C/C=C\\CCC(=O)O", "note": "[RCTR1, 8-glutathionyl, 7,17-hydroxy-4Z,9,11,13Z,15E,19Z-docosahexaenoic acid]", "24 h Mouse infected spleens": "^a (Below limits, ~1 pg)"}, {"molecule": "CC/C=C\\C[C@H](O)/C=C/C=C\\C=C\\C=C\\[C@@H](SC[C@H](N)C(=O)NCC(=O)O)[C@@H](O)C/C=C\\CCC(=O)O", "note": "[RCTR2, 8-cysteinylglycinyl, 7,17-hydroxy-4Z,9,11,13Z,15E,19Z-docosahexaenoic acid]", "24 h Mouse infected spleens": "^a (Below limits, ~1 pg)"}, {"molecule": "CC/C=C\\CC(O)/C=C/C=C\\C=C\\C=C\\C(SCC(N)C(=O)O)C(O)C/C=C\\CCC(=O)O", "note": "(centres unmarked) [RCTR3, 8-cysteinyl, 7,17-hydroxy-4Z,9,11,13Z,15E,19Z-docosahexaenoic acid]", "24 h Mouse infected spleens": "^a (Below limits, ~1 pg)"}]}, {"assay": "LC-MS-MS MRM quantification of sulfido-conjugate levels in mouse tissues", "conditions": "endogenous level; mean ± SEM; n 3 mice", "units": {"24 h Mouse infected spleens": "pg/mg"}, "values": [{"molecule": "13-cysteinyl, 14-hydroxy-docosahexaenoic acid [MCTR3]", "24 h Mouse infected spleens": "53.0 ± 14.9"}, {"molecule": "13-glutathionyl, 14-hydroxy-docosahexaenoic acid [SCI]", "24 h Mouse infected spleens": "10.0 ± 4.1"}, {"molecule": "CCCCC/C=C\\C\\C=C/C=C/C=C/[C@@H](SC[C@H](NC(=O)CC[C@H](N)C(=O)O)C(=O)NCC(=O)O)[C@@H](O)CCCC(=O)O", "note": "[LTC4]", "24 h Mouse infected spleens": "43.3 ± 15.4"}, {"molecule": "CC/C=C\\CC(O)C(/C=C/C=C/C=C\\C/C=C\\C/C=C\\CCC(=O)O)SCC(NC(=O)CCC(N)C(=O)O)C(=O)NCC(=O)O", "note": "(centres unmarked) [PCTR1, 16-glutathionyl, 17-hydroxy-4Z,7Z,10,12,14,19Z-docosahexaenoic acid]", "24 h Mouse infected spleens": "19.4 ± 4.8"}, {"molecule": "CC/C=C\\C[C@H](O)[C@@H](/C=C/C=C/C=C\\C/C=C\\C/C=C\\CCC(=O)O)SC[C@H](N)C(=O)O", "note": "[PCTR3, 16-cysteinyl, 17-hydroxy-4Z,7Z,10,12,14,19Z-docosahexaenoic acid]", "24 h Mouse infected spleens": "23.3 ± 4.4"}, {"molecule": "CCC=CCC=CCC(O)C(C=CC=CC=CCC=CCCC(=O)O)SCC(N)C(=O)NCC(=O)O", "note": "(centres unmarked) [SCII, 13-cysteinylglycinyl, 14-hydroxy-docosahexaenoic acid]", "24 h Mouse infected spleens": "22.2 ± 17.5"}]}, {"assay": "LC-MS-MS MRM quantification of sulfido-conjugate levels in mouse tissues", "conditions": "endogenous level; mean ± SEM; n 6 mice; lavage volume 5 ml", "units": {"24 h Resolving mouse exudates": "pg/lavage"}, "values": [{"molecule": "13-cysteinyl, 14-hydroxy-docosahexaenoic acid [MCTR3]", "24 h Resolving mouse exudates": "13.4 ± 3.7"}, {"molecule": "13-glutathionyl, 14-hydroxy-docosahexaenoic acid [SCI]", "24 h Resolving mouse exudates": "1.8 ± 0.7"}]}]}
